The supplement of paper PMC12067093, “Discovery and optimisation of a covalent ligand for TRIM25 and its application to targeted protein ubiquitination” (Chemical Science, 2025)
This is one part of the list.

Chains of the proteins cited; added tags and fusions are not shown. Lines headed by an entry give the natural chain unless they say otherwise; changes in a name come on top.
UniProt Q92616, whole entry, looked up: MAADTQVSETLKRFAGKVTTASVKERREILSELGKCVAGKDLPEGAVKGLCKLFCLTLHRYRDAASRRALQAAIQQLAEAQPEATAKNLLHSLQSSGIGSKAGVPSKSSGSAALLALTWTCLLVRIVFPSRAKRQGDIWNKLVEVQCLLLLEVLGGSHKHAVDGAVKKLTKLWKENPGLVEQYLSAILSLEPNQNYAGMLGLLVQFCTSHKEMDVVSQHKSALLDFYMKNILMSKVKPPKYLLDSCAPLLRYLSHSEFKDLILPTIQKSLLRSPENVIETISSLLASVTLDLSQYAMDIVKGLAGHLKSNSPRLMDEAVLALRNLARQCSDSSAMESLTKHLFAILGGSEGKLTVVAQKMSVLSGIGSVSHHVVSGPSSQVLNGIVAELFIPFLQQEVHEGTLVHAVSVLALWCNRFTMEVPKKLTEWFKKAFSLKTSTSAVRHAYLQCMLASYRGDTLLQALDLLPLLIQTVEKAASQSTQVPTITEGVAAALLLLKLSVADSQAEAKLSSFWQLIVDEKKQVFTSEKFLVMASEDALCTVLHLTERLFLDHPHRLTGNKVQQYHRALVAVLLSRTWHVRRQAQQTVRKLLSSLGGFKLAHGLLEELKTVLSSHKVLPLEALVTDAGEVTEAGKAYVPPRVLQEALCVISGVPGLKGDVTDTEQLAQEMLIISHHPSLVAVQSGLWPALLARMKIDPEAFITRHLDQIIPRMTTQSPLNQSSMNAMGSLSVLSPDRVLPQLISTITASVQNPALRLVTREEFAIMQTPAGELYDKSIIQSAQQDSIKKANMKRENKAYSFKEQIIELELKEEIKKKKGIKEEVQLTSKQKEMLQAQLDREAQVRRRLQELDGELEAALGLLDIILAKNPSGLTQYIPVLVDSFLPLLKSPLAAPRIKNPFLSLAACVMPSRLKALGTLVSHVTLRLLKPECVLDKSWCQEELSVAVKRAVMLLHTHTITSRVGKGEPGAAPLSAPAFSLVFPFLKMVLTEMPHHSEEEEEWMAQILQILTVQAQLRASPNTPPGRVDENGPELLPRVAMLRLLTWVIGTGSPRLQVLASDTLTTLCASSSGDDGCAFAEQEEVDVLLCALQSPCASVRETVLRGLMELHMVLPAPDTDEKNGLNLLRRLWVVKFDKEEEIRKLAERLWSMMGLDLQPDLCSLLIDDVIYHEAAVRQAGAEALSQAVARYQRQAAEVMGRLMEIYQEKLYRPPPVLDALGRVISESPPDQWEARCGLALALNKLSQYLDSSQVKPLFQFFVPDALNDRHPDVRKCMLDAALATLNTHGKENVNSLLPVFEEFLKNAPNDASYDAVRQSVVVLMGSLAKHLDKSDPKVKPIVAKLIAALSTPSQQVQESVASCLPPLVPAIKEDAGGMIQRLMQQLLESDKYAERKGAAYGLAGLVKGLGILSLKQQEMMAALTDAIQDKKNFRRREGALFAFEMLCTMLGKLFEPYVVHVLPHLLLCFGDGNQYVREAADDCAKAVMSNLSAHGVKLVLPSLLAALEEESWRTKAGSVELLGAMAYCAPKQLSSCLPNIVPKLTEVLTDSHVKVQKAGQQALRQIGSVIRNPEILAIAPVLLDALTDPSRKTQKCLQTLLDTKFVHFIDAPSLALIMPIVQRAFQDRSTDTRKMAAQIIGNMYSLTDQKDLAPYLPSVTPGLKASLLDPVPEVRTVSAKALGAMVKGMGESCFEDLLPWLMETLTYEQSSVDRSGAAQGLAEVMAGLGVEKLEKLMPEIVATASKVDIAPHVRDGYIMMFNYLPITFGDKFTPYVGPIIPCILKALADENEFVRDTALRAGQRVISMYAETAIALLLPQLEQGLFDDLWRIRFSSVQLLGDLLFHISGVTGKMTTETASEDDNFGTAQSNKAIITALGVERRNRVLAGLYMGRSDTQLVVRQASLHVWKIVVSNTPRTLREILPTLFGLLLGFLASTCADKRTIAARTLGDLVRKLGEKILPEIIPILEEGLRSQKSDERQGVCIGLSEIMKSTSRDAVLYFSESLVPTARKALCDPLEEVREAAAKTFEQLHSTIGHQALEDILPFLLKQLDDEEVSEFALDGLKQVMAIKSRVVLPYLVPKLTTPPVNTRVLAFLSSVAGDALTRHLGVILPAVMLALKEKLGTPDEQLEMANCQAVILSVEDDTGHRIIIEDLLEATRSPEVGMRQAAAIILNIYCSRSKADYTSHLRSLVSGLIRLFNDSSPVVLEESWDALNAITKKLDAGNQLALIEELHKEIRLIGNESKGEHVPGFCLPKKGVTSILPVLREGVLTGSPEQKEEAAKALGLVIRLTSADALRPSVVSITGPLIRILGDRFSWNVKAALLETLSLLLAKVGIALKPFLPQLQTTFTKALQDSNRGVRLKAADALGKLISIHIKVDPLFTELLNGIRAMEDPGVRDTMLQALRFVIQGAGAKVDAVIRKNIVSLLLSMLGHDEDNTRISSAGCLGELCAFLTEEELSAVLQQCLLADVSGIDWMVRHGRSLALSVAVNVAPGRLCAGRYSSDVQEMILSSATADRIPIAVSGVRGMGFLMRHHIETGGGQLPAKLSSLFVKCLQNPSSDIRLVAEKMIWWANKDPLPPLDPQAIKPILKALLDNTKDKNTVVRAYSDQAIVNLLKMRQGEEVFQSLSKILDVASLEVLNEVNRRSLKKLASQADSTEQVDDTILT
UniProt Q9NY12: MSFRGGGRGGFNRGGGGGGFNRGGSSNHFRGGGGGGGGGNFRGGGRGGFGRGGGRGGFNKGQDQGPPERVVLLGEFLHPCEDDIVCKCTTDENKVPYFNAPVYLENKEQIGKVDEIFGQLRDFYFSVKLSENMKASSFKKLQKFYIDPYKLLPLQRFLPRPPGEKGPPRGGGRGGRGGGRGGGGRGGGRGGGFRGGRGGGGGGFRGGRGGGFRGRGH
UniProt Q96C23: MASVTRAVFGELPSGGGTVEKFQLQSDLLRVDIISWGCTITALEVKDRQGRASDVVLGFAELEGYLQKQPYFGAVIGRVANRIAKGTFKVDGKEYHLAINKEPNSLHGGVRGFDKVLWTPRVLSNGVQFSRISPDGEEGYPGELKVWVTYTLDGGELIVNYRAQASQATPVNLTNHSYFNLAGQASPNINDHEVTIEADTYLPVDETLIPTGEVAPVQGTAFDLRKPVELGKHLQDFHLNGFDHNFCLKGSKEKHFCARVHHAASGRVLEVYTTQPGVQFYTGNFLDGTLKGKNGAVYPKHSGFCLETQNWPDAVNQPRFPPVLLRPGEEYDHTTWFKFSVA
UniProt Q9H840: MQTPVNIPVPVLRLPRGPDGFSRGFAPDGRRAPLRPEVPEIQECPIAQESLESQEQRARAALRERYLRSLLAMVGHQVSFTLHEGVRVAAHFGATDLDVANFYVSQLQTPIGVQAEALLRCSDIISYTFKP
UniProt Q10471: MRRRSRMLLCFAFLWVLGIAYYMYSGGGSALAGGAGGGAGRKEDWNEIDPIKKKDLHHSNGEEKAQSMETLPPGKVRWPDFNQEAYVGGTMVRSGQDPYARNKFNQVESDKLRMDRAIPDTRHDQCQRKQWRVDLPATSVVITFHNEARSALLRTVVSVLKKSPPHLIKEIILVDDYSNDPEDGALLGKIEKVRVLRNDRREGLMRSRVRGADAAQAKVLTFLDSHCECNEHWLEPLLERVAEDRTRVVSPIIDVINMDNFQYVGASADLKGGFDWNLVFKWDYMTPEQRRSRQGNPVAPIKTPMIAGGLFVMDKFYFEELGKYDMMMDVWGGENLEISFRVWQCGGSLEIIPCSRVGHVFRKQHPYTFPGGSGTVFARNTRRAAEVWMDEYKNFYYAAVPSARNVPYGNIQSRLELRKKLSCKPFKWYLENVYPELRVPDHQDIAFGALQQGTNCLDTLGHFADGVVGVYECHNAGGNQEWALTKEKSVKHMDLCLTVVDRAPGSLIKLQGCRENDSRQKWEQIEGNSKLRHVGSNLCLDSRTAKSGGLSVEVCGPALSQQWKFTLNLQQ
UniProt Q8IWJ2: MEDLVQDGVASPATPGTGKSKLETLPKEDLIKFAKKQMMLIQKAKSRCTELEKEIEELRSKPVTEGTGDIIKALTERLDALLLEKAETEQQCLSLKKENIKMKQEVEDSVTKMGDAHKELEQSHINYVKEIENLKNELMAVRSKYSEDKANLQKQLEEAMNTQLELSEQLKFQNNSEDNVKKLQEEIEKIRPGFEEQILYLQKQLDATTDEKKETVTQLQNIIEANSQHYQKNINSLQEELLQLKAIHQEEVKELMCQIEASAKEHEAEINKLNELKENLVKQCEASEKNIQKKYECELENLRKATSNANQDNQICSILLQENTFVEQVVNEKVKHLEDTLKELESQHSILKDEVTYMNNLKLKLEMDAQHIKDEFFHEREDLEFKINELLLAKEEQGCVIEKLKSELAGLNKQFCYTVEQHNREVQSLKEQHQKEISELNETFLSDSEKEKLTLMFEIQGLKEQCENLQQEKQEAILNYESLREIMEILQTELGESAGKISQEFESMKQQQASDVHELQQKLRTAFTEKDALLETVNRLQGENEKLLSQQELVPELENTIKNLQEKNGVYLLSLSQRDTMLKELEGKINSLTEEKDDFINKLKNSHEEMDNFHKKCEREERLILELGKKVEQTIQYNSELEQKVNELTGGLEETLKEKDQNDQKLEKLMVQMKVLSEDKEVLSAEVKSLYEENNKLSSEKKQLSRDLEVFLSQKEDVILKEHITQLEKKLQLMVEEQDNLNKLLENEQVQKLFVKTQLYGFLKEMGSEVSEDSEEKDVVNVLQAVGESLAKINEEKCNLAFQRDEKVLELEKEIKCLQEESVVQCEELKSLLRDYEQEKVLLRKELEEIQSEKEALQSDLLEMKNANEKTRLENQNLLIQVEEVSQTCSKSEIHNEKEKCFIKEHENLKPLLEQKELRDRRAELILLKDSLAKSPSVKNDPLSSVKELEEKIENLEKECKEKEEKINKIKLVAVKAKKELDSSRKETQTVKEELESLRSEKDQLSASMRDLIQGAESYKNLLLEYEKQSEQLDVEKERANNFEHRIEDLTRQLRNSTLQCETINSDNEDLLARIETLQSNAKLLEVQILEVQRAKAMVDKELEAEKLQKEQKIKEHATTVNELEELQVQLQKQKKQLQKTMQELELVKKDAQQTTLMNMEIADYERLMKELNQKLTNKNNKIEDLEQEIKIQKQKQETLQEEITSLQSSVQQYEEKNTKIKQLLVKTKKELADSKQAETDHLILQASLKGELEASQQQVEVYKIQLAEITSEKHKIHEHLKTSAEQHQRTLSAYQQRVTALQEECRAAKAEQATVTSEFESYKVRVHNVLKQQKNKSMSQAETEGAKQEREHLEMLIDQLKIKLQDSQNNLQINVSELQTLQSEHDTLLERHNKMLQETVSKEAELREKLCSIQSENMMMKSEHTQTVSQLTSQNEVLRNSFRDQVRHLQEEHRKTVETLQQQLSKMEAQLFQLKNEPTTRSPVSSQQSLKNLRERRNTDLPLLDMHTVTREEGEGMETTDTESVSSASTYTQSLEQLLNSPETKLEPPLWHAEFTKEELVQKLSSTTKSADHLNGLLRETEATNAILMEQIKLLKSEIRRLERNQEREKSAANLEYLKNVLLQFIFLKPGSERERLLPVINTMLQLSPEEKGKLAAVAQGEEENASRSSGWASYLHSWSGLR
UniProt Q8N2G8: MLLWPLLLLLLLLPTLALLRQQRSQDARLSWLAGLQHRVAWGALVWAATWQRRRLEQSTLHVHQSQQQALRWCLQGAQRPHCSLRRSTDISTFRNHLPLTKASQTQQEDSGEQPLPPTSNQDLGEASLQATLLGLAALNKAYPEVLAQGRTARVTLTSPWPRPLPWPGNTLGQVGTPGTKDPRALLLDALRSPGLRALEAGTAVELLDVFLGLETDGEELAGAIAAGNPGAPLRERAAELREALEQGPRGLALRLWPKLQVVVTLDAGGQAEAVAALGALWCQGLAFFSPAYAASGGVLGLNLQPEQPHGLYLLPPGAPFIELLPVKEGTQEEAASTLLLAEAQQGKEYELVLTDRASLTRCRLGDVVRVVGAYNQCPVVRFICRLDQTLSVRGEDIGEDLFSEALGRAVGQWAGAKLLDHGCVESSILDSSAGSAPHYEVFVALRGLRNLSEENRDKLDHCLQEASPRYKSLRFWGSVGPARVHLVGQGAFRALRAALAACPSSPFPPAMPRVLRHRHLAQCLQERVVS
UniProt P07902: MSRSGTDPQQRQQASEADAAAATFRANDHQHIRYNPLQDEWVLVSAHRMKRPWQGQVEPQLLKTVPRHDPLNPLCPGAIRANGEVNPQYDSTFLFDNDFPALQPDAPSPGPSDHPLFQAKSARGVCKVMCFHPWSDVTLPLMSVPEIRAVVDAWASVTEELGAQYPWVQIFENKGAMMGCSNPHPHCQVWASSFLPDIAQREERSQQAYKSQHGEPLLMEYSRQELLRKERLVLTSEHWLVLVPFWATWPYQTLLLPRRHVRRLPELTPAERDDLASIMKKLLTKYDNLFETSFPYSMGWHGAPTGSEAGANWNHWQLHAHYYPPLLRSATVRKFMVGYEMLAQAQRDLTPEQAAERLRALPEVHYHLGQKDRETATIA

Compound: Cc1cc(ccc1-c1ccccc1)C(=O)N1CCCN(CC1)C(=O)CCl [compound 10]
Experiment: probe-labelled cysteine peptide fold change vs DMSO (competition) (log2 fold change); higher = less target engagement (more negative = stronger competition)
Details: THP-1, incubation time: 4 h
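Note: competitive profiling in live THP-1 cells: cysteine peptides tagged with an iodoacetamide desthiobiotin (IA-DTB) probe, intensity after compound treatment relative to DMSO-treated cells.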

| Target | probe-labelled cysteine peptide fold change (10 µM) | probe-labelled cysteine peptide fold change (50 µM) |
| --- | --- | --- |
| GIPC3_Q8TF64_152_IEAVCVGDSIEAINDHSIVGCR (UniProt Q8TF64) | -0.0385 | -0.263 |
| GAPDH_P04406_247_LTGMAFRVPTANVSVVDLTCR (UniProt P04406) | -0.101 | -0.518 |
| GIT1_Q9Y2X7_31_GVLVCDECCSVHR (UniProt Q9Y2X7) | 0.157 | 0.129 |
| GCN1_Q92616_1595_CLQTLLDTK (UniProt Q92616) | -0.109 | -0.163 |
| GCLM_P48507_72_EFPDVLECTVSHAVEK (UniProt P48507) | 0.0454 | -0.116 |
| GAR1_Q9NY12_88_CTTDENKVPYFNAPVYLENK (UniProt Q9NY12) | -0.0888 | -0.814 |
| GALM_Q96C23_38_VDIISWGCTITALEVK (UniProt Q96C23) | -0.00191 | 0.0364 |
| GARS_P41250_442_QHMENEMAHYACDCWDAESK (UniProt P41250) | 0.132 | 0.0951 |
| GALNT6_Q8NCL4_509_NLGTNQCLDVGENNR (UniProt Q8NCL4) | 0.135 | 0.262 |
| GIT1_Q9Y2X7_222_LVECQYELTDR (UniProt Q9Y2X7) | 0.00532 | 0.102 |
| GIT2_Q14161_672_HDSYIPCSER (UniProt Q14161) | 0.109 | 0.144 |
| GEMIN7_Q9H840_44_APLRPEVPEIQECPIAQESLESQEQR (UniProt Q9H840) | -0.104 | -0.0736 |
| GAS7_O60861_318_CDHHIADLR (UniProt O60861) | 0.0812 | 0.152 |
| GALNT2_Q10471_539_HVGSNLCLDSR (UniProt Q10471) | 0.0506 | 0.137 |
| GAN_Q9H2C0_452_TQQWTAICPLK (UniProt Q9H2C0) | -0.0309 | 0.0814 |
| GEMIN4_P57678_210_LRSDPDACPTMPLLAMLLR (UniProt P57678) | -0.401 | -0.547 |
| GATD1_Q8NB37_133_ILQHFHSESKPICAVGHGVAALCCATNEDR (UniProt Q8NB37) | -0.00565 | -0.103 |
| GDI1_P31150_302_IICILSHPIK (UniProt P31150) | 0.106 | -0.0443 |
| GIPC3_Q8TF64_168_EGSIINRIEAVCVGDSIEAINDHSIVGCR (UniProt Q8TF64) | 0.00365 | -0.113 |
| GGCT_O75223_144_KIICMGAK (UniProt O75223) | -0.0382 | -0.262 |
| GCC2_Q8IWJ2_48_CTELEK (UniProt Q8IWJ2) | 0.114 | -0.0599 |

| Target | probe-labelled cysteine peptide fold change (10 µM) | probe-labelled cysteine peptide fold change (50 µM) |
| --- | --- | --- |
| GCLC_P48506_152_LGCPGFTLPEVKPNPVEGGASK (UniProt P48506) | 0.0625 | -0.0144 |
| GBE1_Q04446_88_CADGGLYCK (UniProt Q04446) | 0.0659 | -0.25 |
| GHDC_Q8N2G8_462_LDHCLQEASPR (UniProt Q8N2G8) | 0.18 | 0.652 |
| GAPDH_P04406_152+156_IISNASCTTNCLAPLAK (UniProt P04406) | 0.128 | -0.879 |
| GARS_P41250_231_KCSVEK (UniProt P41250) | 0.133 | -0.461 |
| GATD3B_A0A0B4J2D5_244_VVTTPAFMCETALHYIHDGIGAMVR | – | 0.0229 |
| GEMIN5_Q8TEQ6_1477_SHFPGCLAQEMQQQAQELLQK (UniProt Q8TEQ6) | 0.019 | 0.0181 |
| GAMT_Q14353_91_VQEAPIDEHWIIECNDGVFQR (UniProt Q14353) | -0.0458 | 0.00231 |
| GCN1_Q92616_1781_FTPYVGPIIPCILK (UniProt Q92616) | 0.12 | 0.32 |
| GIGYF2_Q6Y7W6_573_RACDESFQPLGDIMK (UniProt Q6Y7W6) | 0.146 | -0.0921 |
| GHDC_Q8N2G8_423_LLDHGCVESSILDSSAGSAPHYEVFVALR (UniProt Q8N2G8) | -0.0559 | -0.211 |
| GALNT1_Q10472_212+214_GQVITFLDAHCECTVGWLEPLLAR (UniProt Q10472) | 0.199 | -0.475 |
| GCN1_Q92616_2015_ALCDPLEEVR (UniProt Q92616) | -0.0318 | 0.0318 |
| GART_P22102_733_TFNCGVGAVLVVSK (UniProt P22102) | -0.0152 | 0.193 |
| GBE1_Q04446_309_NSADGLNMFDGTDSCYFHSGPR (UniProt Q04446) | 0.0575 | 0.333 |
| GEMIN5_Q8TEQ6_19_CSDAVPGGLFGFAAR (UniProt Q8TEQ6) | -0.0505 | -0.0281 |
| GARS_P41250_471_SCYDLSCHAR (UniProt P41250) | 0.113 | -0.286 |
| GEMIN5_Q8TEQ6_676_EEPLCNFR (UniProt Q8TEQ6) | -0.223 | -0.0118 |
| GCLC_P48506_295_GYVSDIDCR (UniProt P48506) | 0.0581 | 0.0157 |
| GIMAP1_Q8WWP7_98_TDPGCEER (UniProt Q8WWP7) | -0.0325 | -0.0834 |
| GHDC_Q8N2G8_502_AALAACPSSPFPPAMPR (UniProt Q8N2G8) | -0.421 | -0.795 |

| Target | probe-labelled cysteine peptide fold change (10 µM) | probe-labelled cysteine peptide fold change (50 µM) |
| --- | --- | --- |
| GLA_P06280_378+382_GVACNPACFITQLLPVKR (UniProt P06280) | 0.071 | -0.0718 |
| GCN1_Q92616_1275_CMLDAALATLNTHGK (UniProt Q92616) | -0.0651 | -0.157 |
| GART_P22102_62_ISNTAISISDHTALAQFCK (UniProt P22102) | 0.426 | 0.11 |
| GBA_P04062_165_VPMASCDFSIR (UniProt P04062) | 0.129 | -0.173 |
| GCFC2_P16383_595_VILEEHSTCENEVSK (UniProt P16383) | -0.33 | -0.462 |
| GFM1_Q96RP9_706_SCTEGKGEYTMEYSR (UniProt Q96RP9) | -0.27 | -0.524 |
| GGNBP2_Q9H3C7_301_TIDIAQEEVLTCLGIHLYER (UniProt Q9H3C7) | -0.0758 | 0.341 |
| GIGYF1_O75420_261_GGCGEEEGR (UniProt O75420) | 0.0933 | -0.0779 |
| GCLC_P48506_615_CNQIANELCECPELLGSAFR (UniProt P48506) | -0.061 | 0.0454 |
| GCAT_O75600_349_MEAAGFTISGASHPICPVMLGDAR (UniProt O75600) | -0.221 | -0.0123 |
| GALT_P07902_180_GAMMGCSNPHPHCQVWASSFLPDIAQR (UniProt P07902) | -0.299 | -0.506 |
| GEMIN5_Q8TEQ6_572_LICTIQQHHK (UniProt Q8TEQ6) | 0.132 | 0.173 |
| GAR1_Q9NY12_86_VVLLGEFLHPCEDDIVCK (UniProt Q9NY12) | 0.118 | 0.342 |
| GALT_P07902_75_HDPLNPLCPGAIR (UniProt P07902) | -0.0759 | 0.0445 |
| GATAD2B_Q8WXI9_420+423_VEPFVCAQCR (UniProt Q8WXI9) | -0.0475 | -0.391 |
| GCC2_Q8IWJ2_889_TRLENQNLLIQVEEVSQTCSK (UniProt Q8IWJ2) | -0.265 | -0.106 |
| GCN1_Q92616_648_VLQEALCVISGVPGLK (UniProt Q92616) | 0.128 | -0.0828 |
| GANAB_Q14697_423_DEADVLEVDQGFDDHNLPCDVIWLDIEHADGKR (UniProt Q14697) | -0.0335 | 0.391 |
| GBF1_Q92538_1707_IDCFLPHLRDELFK (UniProt Q92538) | -0.0239 | -0.111 |
| GIPC1_O14908_100_LPTAEVMFCTLNTHK (UniProt O14908) | 0.0302 | 0.263 |
| GHDC_Q8N2G8_377_VVGAYNQCPVVR (UniProt Q8N2G8) | -0.022 | -0.191 |

| Target | probe-labelled cysteine peptide fold change (10 µM) | probe-labelled cysteine peptide fold change (50 µM) |
| --- | --- | --- |
| GAPDH_P04406_247_VPTANVSVVDLTCR (UniProt P04406) | 0.127 | 0.0861 |
| GANAB_Q14697_822_RSSECMKDDPITLFVALSPQGTAQGELFLDDGHTFNYQTR (UniProt Q14697) | -0.171 | -0.418 |
| GFM1_Q96RP9_153_VLDGAVLVLCAVGGVQCQTMTVNR (UniProt Q96RP9) | -0.362 | 0.0464 |
| GCAT_O75600_219_LVATDGAFSMDGDIAPLQEICCLASR (UniProt O75600) | 0.269 | -0.248 |
| GEMIN7_Q9H840_44_RAPLRPEVPEIQECPIAQESLESQEQR (UniProt Q9H840) | -0.272 | -1.01 |
| GCLM_P48507_35_CPSTHSEELHDCIQK (UniProt P48507) | 0.162 | -0.576 |
| GIT1_Q9Y2X7_11+14_AEVCADCSAPDPGWASISR (UniProt Q9Y2X7) | 0.221 | 0.491 |
| GALNT2_Q10471_496_HMDLCLTVVDRAPGSLIK (UniProt Q10471) | 0.0216 | -0.225 |
| GALNT1_Q10472_459_VGIFNCHGMGGNQVFSYTANK (UniProt Q10472) | -0.119 | -0.0543 |
| GAPDH_P04406_247_VPTANVSVVDLTCRLEK (UniProt P04406) | -0.552 | -0.788 |
| GART_P22102_134_AFTKPEEACSFILSADFPALVVK (UniProt P22102) | 0.298 | 0.0386 |
| GALM_Q96C23_305_HSGFCLETQNWPDAVNQPR (UniProt Q96C23) | -0.00528 | 0.0247 |
| GAPVD1_Q14C86_1160_NGLPDHTDPEDNEIVCFLK (UniProt Q14C86) | -0.115 | -0.25 |
| GINS4_Q9BRT9_53_FAPELLESKPEIVECVMEQLEHMEENLRR (UniProt Q9BRT9) | 0.0768 | -0.0213 |
| GCN1_Q92616_1535_QLSSCLPNIVPK (UniProt Q92616) | -0.0125 | -0.263 |
| GGPS1_O95749_138_DNYTCPTEEEYK (UniProt O95749) | 0.0949 | 0.243 |
| GDI1_P31150_335_KSDIYVCMISYAHNVAAQGK (UniProt P31150) | 0.246 | 0.0153 |
| GAPVD1_Q14C86_741_LQELESCSGLGSTSDDTDVR (UniProt Q14C86) | 0.0834 | 0.0774 |
| GANAB_Q14697_423_DEADVLEVDQGFDDHNLPCDVIWLDIEHADGK (UniProt Q14697) | 0.0435 | 0.597 |
| GARS_P41250_616_CSVLPLSQNQEFMPFVK (UniProt P41250) | -0.0255 | 0.0502 |
